Patent US10265257B2, “Personal care composition” (Innospec Limited, priority 2007, dated 2019)

Assay: Foaming test in capped measuring cylinder
Type: physicochemical
Conditions: graduated cylinder, after 10 inversions

In the case of sodium cocoylmethylisethionate [SCMI], the foam character is reported as “rich and creamy”.
For “sodium laureth sulfate [SLES, reference compound]”, the foam character was “open and “watery””.
